Assay results taken from paper doi:10.1101/2021.12.20.473554.
These are yes or no findings as the source states them, for the method shown. Binding seen in cells or lysates may run through a third protein.

Amino acid sequences for entries named in this document (tags omitted). A change or cut given only in a name is not applied to a line headed by its entry.
UniProt P31749, whole entry, stated change not applied: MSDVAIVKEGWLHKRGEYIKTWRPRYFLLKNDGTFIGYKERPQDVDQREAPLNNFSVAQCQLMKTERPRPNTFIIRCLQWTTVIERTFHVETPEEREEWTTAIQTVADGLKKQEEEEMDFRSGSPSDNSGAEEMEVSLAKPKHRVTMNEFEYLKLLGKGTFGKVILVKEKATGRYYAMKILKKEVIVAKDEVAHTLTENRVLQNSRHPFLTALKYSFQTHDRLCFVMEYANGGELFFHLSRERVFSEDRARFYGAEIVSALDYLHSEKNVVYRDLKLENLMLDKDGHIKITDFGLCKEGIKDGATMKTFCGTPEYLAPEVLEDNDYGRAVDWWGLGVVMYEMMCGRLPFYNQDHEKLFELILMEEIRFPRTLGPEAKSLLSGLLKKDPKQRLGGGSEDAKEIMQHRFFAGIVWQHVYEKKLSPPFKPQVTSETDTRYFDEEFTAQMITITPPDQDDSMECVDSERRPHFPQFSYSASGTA

Biological target: HA-Akt1 (pcDNA3-HA-Akt1) (UniProt P31749)
Assay: co-IP

Row | Substance | binding
1 | Flag-TSC22D4-ΔD2 (from UniProt Q9EQN3) (domain or fragment) | no binding
2 | Flag-TSC22D4-ΔTSC (from UniProt Q9EQN3) (domain or fragment) | no binding
